# According to the supplement of paper PMC9135407:
# Several values for one entry are separate records, joined by “and”; a condition that tells them apart may be missing. Equal values may be shown once. Where a name gives a salt, the structure may show the parent alone. ± gives the standard deviation of the averaged measurements. Some of the results follow. Baselines shift from plate to plate; read single values as rough.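 Assay uses culture-activated primary human stellate myofibroblasts; lipid droplet recovery indicates inactivation. Measured: proportion of Hoechst-counted cells over a plate-specific Bodipy cutoff, duplicate wells, DMSO and nortriptyline as per-plate negative and positive controls. A hit scores, control-normalized, above the plate's top-tenth-percentile nortriptyline wells or ranks among its three best wells. Final well concentrations not reported.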
# System: primary human hepatic stellate cells (donor 1)
# Assay: percent Bodipy-positive cells; higher = more lipid droplet accumulation
# Conditions: 48 h
# [1] = library stock concentration: 10 mM
# [2] = library stock concentration: 3.33 mM
# [3] = library stock concentration: 1 mM
structure (smiles),measurement,setting,value
c1ccc(Cn2ccnc2)cc1,percent Bodipy-positive cells,[1],15.7 ± 0.26%
Cc1cccc(Cc2c[nH]cn2)c1C [Detomidine HCl],percent Bodipy-positive cells,[2],13.3 ± 6.2%
same,percent Bodipy-positive cells,[1],44.3 ± 30%
CN1CC[C@]2(CCN3CCc4c(oc5ccccc45)[C@@H]3C2)N(C)C1=O,percent Bodipy-positive cells,[1],45 ± 21%
N#CC(C#N)=Cc1ccc(O)c(O)c1 [Tyrphostin 23],percent Bodipy-positive cells,[1],17.5 ± 5.2%
S=C=NCc1ccccc1 [Benzyl isothiocyanate],percent Bodipy-positive cells,[1],38.9 ± 3.3%
CCCC[N+]1(C)[C@@H]2C[C@@H](OC(=O)[C@H](CO)c3ccccc3)C[C@H]1[C@@H]1O[C@@H]12 (stereo partly drawn) [Butylscopolamine Bromide],percent Bodipy-positive cells,[2],5.412 ± 0.05%
same,percent Bodipy-positive cells,[1],7.53 ± 0.37%
COP(=O)(OC)OC=C(Cl)Cl [Dichlorvos],percent Bodipy-positive cells,library stock concentration: 9.1 mM,7.56 ± 0.63%
C[C@H]1CC[C@]2(NC1)O[C@H]1C[C@H]3[C@@H]4CC[C@H]5C[C@@H](O)CC[C@]5(C)[C@H]4CC[C@]3(C)[C@H]1[C@@H]2C [Tomatidine],percent Bodipy-positive cells,,35.3 ± 3.3%
NC(=O)CI [Iodoacetamide],percent Bodipy-positive cells,[1],100%
CCCCCCCCCCCCCC(=O)O[C@@H]1[C@@H](C)[C@@]2(O)[C@@H](C=C(CO)C[C@]3(O)C(=O)C(C)=C[C@@H]23)[C@@H]2C(C)(C)[C@]12OC(C)=O [Phorbol 12-myristate 13-acetate],percent Bodipy-positive cells,library stock concentration: 8.1 mM,81.9 ± 0.92%
C[C@]12CCC(=O)C=C1C=C[C@@H]1[C@@H]2CC[C@@]2(C)[C@H]1CC[C@@]2(O)CCC(=O)O [Canrenoic acid potassium salt],percent Bodipy-positive cells,,26.9 ± 5.7%
"C[C@]12CCC(=O)C=C1C=C[C@@H]1[C@@H]2CC[C@@]2(C)[C@H]1CC[C@@]2(O)CCC(=O)O [Canrenoic acid, potassium salt]",percent Bodipy-positive cells,library stock concentration: 5 mM,12.2 ± 2.2%
same,percent Bodipy-positive cells,[1],21.5 ± 1.4%
"CC[C@@H](C(=O)[C@@H](C)[C@@H](O)[C@H](C)[C@@H]1O[C@@H]([C@@H](CC)C(=O)O)CC[C@@H]1C)[C@H]1O[C@]2(C=C[C@@H](O)[C@]3(CC[C@@](C)([C@H]4CC[C@](O)(CC)[C@H](C)O4)O3)O2)[C@H](C)C[C@@H]1C [Salinomycin, sodium]",percent Bodipy-positive cells,[1],60.1 ± 3.6%
"COc1ccc2[nH]c3c(c2c1)CCNC3 [6-Methoxy-1,2,3,4-tetrahydro-9H-pyrido[3,4b] indole]",percent Bodipy-positive cells,[1],85.7 ± 8%
C(#CCN1CCCC1)CN1CCCC1 [Tremorine dihydrochloride],percent Bodipy-positive cells,,54.2 ± 25%
OC(Cc1ccncc1)C(Cl)(Cl)Cl (stereo not drawn),percent Bodipy-positive cells,[1],9.14 ± 2%
Cc1cccc(C)c1NC(=O)CN1CCCC1=O [Nefiracetam],percent Bodipy-positive cells,[2],10.6 ± 3.4%
CS(=O)(=O)Nc1ccc(Cc2noc(-c3ccc4[nH]cc(CCN)c4c3)n2)cc1,percent Bodipy-positive cells,[1],7.01% and 7.35%
O=[N+]([O-])/C=C/c1ccc2c(c1)OCO2,percent Bodipy-positive cells,[1],100%
CC(C)NC(C)Cc1ccc(I)cc1 (stereo not drawn) [Iofetamine hydrochloride],percent Bodipy-positive cells,[1],81.9 ± 5.5%
O=c1ccc2cc(O[C@@H]3O[C@H](CO)[C@@H](O)[C@H](O)[C@H]3O)c(O)cc2o1 [Esculin],percent Bodipy-positive cells,[2],7.82 ± 0.45%
same,percent Bodipy-positive cells,[1],8.13 ± 4.5%
O=c1ccc2cc(O[C@@H]3O[C@H](CO)[C@@H](O)[C@H](O)[C@H]3O)c(O)cc2o1 [Esculin Hydrate],percent Bodipy-positive cells,,6.83 ± 1.4%
O=c1ccc2cc(O[C@@H]3O[C@H](CO)[C@@H](O)[C@H](O)[C@H]3O)c(O)cc2o1 [Aesculin],percent Bodipy-positive cells,[1],18.9 ± 6.3%
COc1cc2c3cc1Oc1c(OC)c(OC)cc4c1[C@@H](Cc1cccc(c1)Oc1ccc(c(O)c1)C[C@@H]3N(C)CC2)N(C)CC4 [Berbamine hydrochloride],percent Bodipy-positive cells,[1],23.4 ± 6.8%
CN1CCCCC1Cn1cc(C(=O)c2cc([N+](=O)[O-])ccc2I)c2ccccc21 (stereo not drawn),percent Bodipy-positive cells,[3],35.8 ± 34%
same,percent Bodipy-positive cells,[2],17.4 ± 3.4%
same,percent Bodipy-positive cells,[1],69.5 ± 6.7%
COC(=O)N1CCN(C(=O)Cc2ccc(Cl)c(Cl)c2)C(CN2CCCC2)C1 (stereo not drawn),percent Bodipy-positive cells,[1],31.9 ± 2.6%
NCC(O)c1ccc(O)cc1 (stereo not drawn) [(?)-Octopamine hydrochloride],percent Bodipy-positive cells,[1],46.3 ± 8.9%
NCC(O)c1ccc(O)cc1 (stereo not drawn) [Octopamine hydrochloride],percent Bodipy-positive cells,[1],21.8% and 10.6%
C[C@]12CC[C@H]3[C@@H](CCC4=CC(=O)CC[C@@]43C)[C@@H]1CC[C@@H]2O [Testosterone],percent Bodipy-positive cells,library stock concentration: 6.9 mM,9.59 ± 3.6%
same,percent Bodipy-positive cells,[1],41.8% and 64.2%
c1ccc2c(c1)Nc1ccccc1S2,percent Bodipy-positive cells,[1],12.6 ± 2%
c1ccc2c(c1)Nc1ccccc1S2 [Phenothiazine],percent Bodipy-positive cells,[2],7.28 ± 0.63%
same,percent Bodipy-positive cells,[1],35.6 ± 3.5%
"c1cc2ccsc2c(N2CCNCC2)n1 [7-Piperazin-1-yl-thieno[2,3-c] Pyridine (hydrochloride)]",percent Bodipy-positive cells,[3],11.7 ± 7.3%
N=C(NCCC[C@H](N)C(=O)O)N[N+](=O)[O-] [N (g)-nitro-l-arginine],percent Bodipy-positive cells,[1],27.3 ± 4.2%
N=C(NCCC[C@H](N)C(=O)O)N[N+](=O)[O-] [NG-Nitro-L-arginine],percent Bodipy-positive cells,[1],31.6 ± 4.1%
O=c1c2ccccc2[se]n1-c1ccccc1 [Ebselen],percent Bodipy-positive cells,[3],8.31 ± 1.4%

# Given as tab-separated lines: entries from further up
structure (smiles)	measurement	setting	value
C[C@H]1CC[C@]2(NC1)O[C@H]1C[C@H]3[C@@H]4CC[C@H]5C[C@@H](O)CC[C@]5(C)[C@H]4CC[C@]3(C)[C@H]1[C@@H]2C [Tomatidine]	percent Bodipy-positive cells		35.3 ± 3.3%
CS(=O)(=O)Nc1ccc(Cc2noc(-c3ccc4[nH]cc(CCN)c4c3)n2)cc1	percent Bodipy-positive cells	[1]	7.01% and 7.35%
